Data source: PubChem BioAssay AID1671195 (Yale University, 2021)
Here is one part, drawn at random, of about 22,000 reagents tested. Of all reagents, about 1,510 (6.9%) were called active. 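Active includes knockdowns raising or lowering LDL uptake; positive z-scores mean more uptake, negative mean less.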 Entries without a mark were called inactive. Reagent sequences are not shown.

- Assay: 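Regulators of LDL receptor activity judged by labelled LDL uptake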 (primary screen)
- System: human Huh7 hepatoma cells
- Reagents: siRNA pool against human genes, 18 nM
- Timing: about 2 to 2.5 days of knockdown, then 8 h LDL uptake
- Challenge: DiI-labelled LDL at 30 µg/ml for 8 h, in lipoprotein-deficient serum medium
- Detection: 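Fluorescent LDL signal imaged in cells, scaled to the plate median, robust z-score for each replicate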
- Direction: robust z-score: higher = more LDL uptake after knockdown
- Call rule: 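Active when two or more replicates show a robust z-score above 2 or below -2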

Gene	robust z-score, replicate 1	robust z-score, replicate 2	robust z-score, replicate 3
TFEB	-0.548	-0.724	-0.698
PDE4D	-1.81	-1.6	-1.93
CIMAP1D	-1.47	-1.49	-1.55
LOC389290 (retired record)	-1.07	-1.52	-1.28
SLC35B3	-1.9	-1.04	-0.989
GLUD1P4	-0.933	-1.05	-0.942
LOC441052	0.2	-0.465	-0.39
CEBPB-AS1	0.216	0.183	0.131
MRPL22	0.541	0.669	1.25
NOAZFP	-0.858	0.454	-1.22
SLC35E3	-1.07	-0.338	-0.588
LOC441392 (retired record)	0.689	0.385	0.335
LOC387648 (retired record)	-0.703	-0.573	-0.768
CDC42EP1	0.267	-0.379	0.195
IL20RA	-0.911	-1.54	-1.06
LOC387905 (retired record)	2.01 (active)	1.94	1.65
KRTAP5-4	-0.284	-0.0897	-0.727
SNX3	-0.356	-0.301	0.61
COX14	0.655	0.289	0.873
CHDH	-1.51	-1.73	-1.67
LOC392512 (retired record)	-0.852	-0.233	-0.203
PLK3	0.0629	0.308	0.178
ERO1B	0.112	-0.702	0.175
OR2W5	-0.463	0.0861	-0.629
LOC389786 (retired record)	0.0664	0.286	-0.206
C10orf143	-0.709	-0.91	-1.12
CAPZA2	-0.232	0.241	-0.327
TRPC4	1.43	1.12	1.08

3 entries from above, showing only “robust z-score, replicate 1”.
KRTAP5-4 = -0.284
SNX3 = -0.356
COX14 = 0.655
